# Results deposited as PubChem BioAssay AID1159598 (NIAID, 2016)
# Aim: 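Canonical TLR pathway genes needed for TNF promoter response to flagellin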
# System: human THP-1 B5 reporter cells made macrophage-like with PMA
# Reagent: single siRNA against human genes
# Timing: reporter read 48 to 72 hours after siRNA transfection
# Challenge: flagellin stimulation for 4 hours, dose not given
# Read-out: 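Firefly to renilla ratio from a TNF promoter reporter after 4 h flagellin, as robust z against negative controls averaged across replicates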
# Reading the numbers: TNF reporter z-score: higher = stronger TNF promoter activity than controls
# Hit rule: 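a row is called active when its replicate-mean z lies at or beyond 1.5 in either direction, so raised and lowered signal both count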
# Calls: active = reporter shifted beyond 1.5 z, up or down; inactive = reporter within 1.5 z of controls
# Shown is an unselected part of 756 reagents tested. Over the whole deposit, 142 (19%) got an active call. 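Active includes both higher and lower reporter signal; each gene has six separate siRNAs, and no gene-level summary is deposited.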 The numbers tell different reagents against one gene apart. The record does not give: the amount of reagent.
gene symbol,reagent no.,TNF reporter z-score,Outcome
NFKB2 (nuclear factor kappa B subunit 2),1,-1.39,inactive
NFKB2 (nuclear factor kappa B subunit 2),2,-0.624,inactive
NFKB2 (nuclear factor kappa B subunit 2),3,1.5,active
NFKB2 (nuclear factor kappa B subunit 2),4,-0.253,inactive
NFKB2 (nuclear factor kappa B subunit 2),5,-2.16,active
NFKB2 (nuclear factor kappa B subunit 2),6,-0.78,inactive
EGR2 (early growth response 2),1,-0.693,inactive
EGR2 (early growth response 2),2,-0.913,inactive
EGR2 (early growth response 2),3,-0.294,inactive
EGR2 (early growth response 2),4,0.00173,inactive
EGR2 (early growth response 2),5,-0.789,inactive
EGR2 (early growth response 2),6,-1.33,inactive
MAPK12 (mitogen-activated protein kinase 12),1,0.164,inactive
MAPK12 (mitogen-activated protein kinase 12),2,-0.588,inactive
MAPK12 (mitogen-activated protein kinase 12),3,-0.436,inactive
MAPK12 (mitogen-activated protein kinase 12),4,-1.65,active
MAPK12 (mitogen-activated protein kinase 12),5,1.17,inactive
MAPK12 (mitogen-activated protein kinase 12),6,-1.04,inactive
UBE2V1 (ubiquitin conjugating enzyme E2 V1),1,0.00619,inactive
UBE2V1 (ubiquitin conjugating enzyme E2 V1),2,-0.259,inactive
UBE2V1 (ubiquitin conjugating enzyme E2 V1),3,-0.0882,inactive
UBE2V1 (ubiquitin conjugating enzyme E2 V1),4,-0.872,inactive
UBE2V1 (ubiquitin conjugating enzyme E2 V1),5,-0.454,inactive
UBE2V1 (ubiquitin conjugating enzyme E2 V1),6,0.745,inactive
MAPK8 (mitogen-activated protein kinase 8),1,0.326,inactive
MAPK8 (mitogen-activated protein kinase 8),2,-1.3,inactive
MAPK8 (mitogen-activated protein kinase 8),3,0.027,inactive
MAPK8 (mitogen-activated protein kinase 8),4,0.0732,inactive
MAPK8 (mitogen-activated protein kinase 8),5,-0.379,inactive
MAPK8 (mitogen-activated protein kinase 8),6,0.00826,inactive
PIK3CG,1,-3.36,active
PIK3CG,2,-0.209,inactive
PIK3CG,3,-1.34,inactive
PIK3CG,4,-2.26,active
PIK3CG,5,-0.203,inactive
PIK3CG,6,-1.18,inactive
STAT1 (signal transducer and activator of transcription 1),1,-0.58,inactive
STAT1 (signal transducer and activator of transcription 1),2,-0.366,inactive
STAT1 (signal transducer and activator of transcription 1),3,-0.604,inactive
STAT1 (signal transducer and activator of transcription 1),4,-0.553,inactive
STAT1 (signal transducer and activator of transcription 1),5,1.26,inactive
STAT1 (signal transducer and activator of transcription 1),6,-0.773,inactive
IRF7 (interferon regulatory factor 7),1,-1.08,inactive
IRF7 (interferon regulatory factor 7),2,-0.535,inactive
IRF7 (interferon regulatory factor 7),3,-0.691,inactive
IRF7 (interferon regulatory factor 7),4,-0.105,inactive
IRF7 (interferon regulatory factor 7),5,-1.77,active
IRF7 (interferon regulatory factor 7),6,-1.59,active
TRADD (TNFRSF1A associated via death domain),1,-0.865,inactive
TRADD (TNFRSF1A associated via death domain),2,-0.553,inactive
TRADD (TNFRSF1A associated via death domain),3,0.41,inactive
TRADD (TNFRSF1A associated via death domain),4,-2.93,active
TRADD (TNFRSF1A associated via death domain),5,1.11,inactive
TRADD (TNFRSF1A associated via death domain),6,-2.88,active
ELF4 (E74 like ETS transcription factor 4),1,-3.69,active
ELF4 (E74 like ETS transcription factor 4),2,-0.989,inactive
ELF4 (E74 like ETS transcription factor 4),3,-0.247,inactive
ELF4 (E74 like ETS transcription factor 4),4,-0.631,inactive
ELF4 (E74 like ETS transcription factor 4),5,-1.87,active
ELF4 (E74 like ETS transcription factor 4),6,-0.939,inactive
CD180 (CD180 molecule),1,0.575,inactive
CD180 (CD180 molecule),2,-0.0553,inactive
CD180 (CD180 molecule),3,-0.928,inactive
CD180 (CD180 molecule),4,-0.711,inactive
CD180 (CD180 molecule),5,-0.823,inactive
CD180 (CD180 molecule),6,0.167,inactive
AKT1 (AKT serine/threonine kinase 1),1,0.278,inactive
AKT1 (AKT serine/threonine kinase 1),2,0.742,inactive
AKT1 (AKT serine/threonine kinase 1),3,-2.2,active
AKT1 (AKT serine/threonine kinase 1),4,-0.015,inactive
AKT1 (AKT serine/threonine kinase 1),5,0.189,inactive
AKT1 (AKT serine/threonine kinase 1),6,-0.706,inactive
MAPK14 (mitogen-activated protein kinase 14),1,-1.53,active
MAPK14 (mitogen-activated protein kinase 14),2,-1.28,inactive
MAPK14 (mitogen-activated protein kinase 14),3,-1.18,inactive
MAPK14 (mitogen-activated protein kinase 14),4,-1.86,active
MAPK14 (mitogen-activated protein kinase 14),5,-0.74,inactive
MAPK14 (mitogen-activated protein kinase 14),6,-1.24,inactive

Targets listed so far whose target name begins with C or c (6):
gene symbol,reagent no.,TNF reporter z-score,Outcome
CD180 (CD180 molecule),1,0.575,inactive
CD180 (CD180 molecule),2,-0.0553,inactive
CD180 (CD180 molecule),3,-0.928,inactive
CD180 (CD180 molecule),4,-0.711,inactive
CD180 (CD180 molecule),5,-0.823,inactive
CD180 (CD180 molecule),6,0.167,inactive
